These results are taken from paper PMC5698428.

Amino acid sequences for entries named in this document (tags omitted).
UniProt P40763, whole entry Y640F: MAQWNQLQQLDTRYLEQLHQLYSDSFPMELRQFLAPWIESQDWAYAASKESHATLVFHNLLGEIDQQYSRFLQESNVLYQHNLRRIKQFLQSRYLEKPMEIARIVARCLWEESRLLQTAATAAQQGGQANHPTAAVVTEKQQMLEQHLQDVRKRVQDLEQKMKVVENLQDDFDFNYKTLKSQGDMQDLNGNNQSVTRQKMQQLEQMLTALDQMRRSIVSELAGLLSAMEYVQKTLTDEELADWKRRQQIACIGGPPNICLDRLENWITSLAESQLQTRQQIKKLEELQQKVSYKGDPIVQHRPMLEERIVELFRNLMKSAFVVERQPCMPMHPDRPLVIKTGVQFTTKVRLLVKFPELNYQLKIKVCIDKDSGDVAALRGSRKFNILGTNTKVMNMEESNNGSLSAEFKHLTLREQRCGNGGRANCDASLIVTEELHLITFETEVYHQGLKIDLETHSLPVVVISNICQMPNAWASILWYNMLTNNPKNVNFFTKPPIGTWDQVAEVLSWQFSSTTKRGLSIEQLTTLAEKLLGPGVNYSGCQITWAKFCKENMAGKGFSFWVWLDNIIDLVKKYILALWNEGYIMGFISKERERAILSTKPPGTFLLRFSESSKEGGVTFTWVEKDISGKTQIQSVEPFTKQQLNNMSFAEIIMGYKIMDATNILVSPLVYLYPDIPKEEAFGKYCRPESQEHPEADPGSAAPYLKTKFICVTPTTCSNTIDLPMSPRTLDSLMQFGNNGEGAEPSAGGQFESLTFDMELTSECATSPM

For at least one entry, the source does not settle the construct or the ends of the probe. At least one result comes from cells or an extract, where the contact may be indirect.

The target in the data set is Etag-STAT3 Y640F (UniProt P40763). As to the kind of experiment: EMSA, supershift. The conditions noted are these: 10 mM Hepes pH 7.8, 1 mM EDTA, 5 mM MgCl2, 10% glycerol, 5 mM DTT, 2 mM Pefabloc SC, 1 mg/ml BSA, 0.1 mg/ml poly(dI-dC), 5 ug nuclear extract, ~10 fmol probe, 10 min, protein in a lysate after overexpression, label: alpha-32P dATP (Klenow fill-in).

For “CGATTCCTGGAACTGCGCGG / CAGCATTTCCGCGCAGTTCCAGGAA [SOCS3 promoter probe]”, the binding result (IFNa2 5 ng/ml 15 min) is given as “binds” and the binding result (LIF 15 ng/ml 15 min) is recorded as “binds”.
In the case of “GATCCGGGAGGGATTTACGGGAAATGCTG (double strand) [cFOS promoter probe]”, the binding result is “binds” (IFNa2 5 ng/ml 15 min) and “binds” (LIF 15 ng/ml 15 min).
